Laboratory results published in the supplement of paper PMC3334620.
Whole data set: some 33,000 sequences, median “E-score (-0.5 to 0.5)” near -0.0034, cut for the highest 2% near 0.25. The list shows a part of the results.

The sequences below were run against T1, Yap3 (UniProt P38749) (assay: PBM E-score (8-mer binding enrichment) (E-score (-0.5 to 0.5)); higher = stronger / more preferred TF binding). Conditions: protein concentration: 100 nM; construct: GST-full length.
T1 sequence: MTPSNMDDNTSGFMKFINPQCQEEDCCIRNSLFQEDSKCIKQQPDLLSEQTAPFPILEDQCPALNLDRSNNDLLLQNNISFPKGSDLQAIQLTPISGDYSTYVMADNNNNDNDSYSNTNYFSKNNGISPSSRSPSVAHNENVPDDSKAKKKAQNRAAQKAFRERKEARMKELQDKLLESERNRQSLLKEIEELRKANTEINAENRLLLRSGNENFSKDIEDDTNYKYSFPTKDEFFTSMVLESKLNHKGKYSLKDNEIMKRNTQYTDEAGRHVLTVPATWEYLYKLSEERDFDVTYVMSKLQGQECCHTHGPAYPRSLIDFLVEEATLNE
In short: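 Using PURExpress in vitro transcription/translation, GST-tagged yeast transcription factors were made in full-length or DNA-binding-domain form. These were applied at about 100-200 nM to double-stranded universal all-10-mer Agilent arrays, and bound protein was detected with fluorescent anti-GST. Scans were normalised with masliner before the Universal PBM Analysis Suite assigned E-scores to ungapped eight-base words pooled with their reverse complements.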

Sequence	PBM E-score
ATAATATC	0.194
GACTTTGA	0.00307
CCCAGTGA	-0.24
AAGTCGGG	0.119
CTGTATTA	0.258
AGTCTCAT	-0.106
CACATGTA	0.109
CCCAGTTA	-0.179
ACCGCCCG	-0.258
CGTTGGTA	-0.0592
CTCGACAC	-0.03
CTAGGGAA	0.00311
CTATTGGA	0.0965
AGTGCAAC	-0.0596
CGCAATAC	0.0866
GAGCATCC	-0.118
AAACGCAA	0.158
GTGCTCGA	-0.122
GTGTGGTA	-0.0645
GAGATGAC	0.0918
GGTCGATA	0.0652
CGACTCCA	-0.141
CGGACATA	0.0315
ATACGGCC	-0.0637
CCCCATCG	-0.13

An excerpt of the results above:
Sequence	PBM E-score
CTATTGGA	0.0965
AGTGCAAC	-0.0596
CGCAATAC	0.0866

(continued)

Sequence	PBM E-score
CCATCTGC	0.131
AACCAGAC	-0.206
GTGGTGCA	-0.113
GCCGATCC	-0.155
GCCAAATA	0.154
ACACAGGC	0.113
GAACGTTA	-0.157
GGATACTA	-0.03
GATCCCCC	-0.261
GGAACCAA	0.0569
AAGAGTGG	-0.0925
CCGTCCAG	-0.152
GCTAAGCC	-0.192
GTGCCATA	-0.0657
GATGATGC	-0.169
TAACGCAA	0.156
CCGCGTAG	-0.00206
GCGCAACC	-0.156
CGCAACAC	-0.0404
CACGGTAA	-0.0552
GCGCATAC	-0.0811
GGTCTAGA	-0.104
CATTACGG	0.156
ACGTCTAA	0.0661
CCTTTTCG	0.0262

Shown in markdown: part of the list above.

| Sequence | PBM E-score |
| --- | --- |
| GGATACTA | -0.03 |
| GATCCCCC | -0.261 |
| GGAACCAA | 0.0569 |
| AAGAGTGG | -0.0925 |

The results go on.

Sequence	PBM E-score
CCGTTCAG	-0.1
AGTTGCCG	0.0305
CTTAGGCC	-0.147
ATCTAAAG	-0.00967
AATTATTA	0.311
CTCCCCAA	-0.176
GTTCCCAA	-0.17
CCGATATA	0.0195
CTCCTCAA	-0.231
CGCTAGCC	-0.235
CCAGTGCC	-0.197
GACCGGCC	-0.251
AGCCGTAT	-0.0387
ATTTTGCA	0.183
ACGTAGTC	-0.262
CCCGCCGG	-0.345
CAATTAAC	0.0563
GAGGCAGA	-0.184
AATCAAAA	0.222
CCGCGCAC	-0.0165
AAAAGCCG	-0.00115
AAATTAGT	0.283
ACGCAGCC	-0.0589
GAGTGCAC	-0.108
AATTTTCC	0.202

Sequence	PBM E-score
AGTGAAGA	-0.135
AGAGATAT	0.0503
AGCGGAAG	0.0705
GACAACAA	0.209
CTGTTGTA	0.122
AAAGAACA	0.216
TAACTTCA	0.181
CAGATTAG	-0.066
AGCCATGA	-0.0317
AACATTTA	0.14
GGGAGCCC	-0.383
GCCGGCGA	-0.103
CGGGAAAA	0.0156
CCTATAAA	-0.16
GTGTTCGA	-0.00112
CGTTTTCA	0.0762
ATAAAATA	0.298
CCGCCCCG	0.222
AAACGTCC	-0.0184
CGCTAGTA	0.0464
CTGGTGGC	-0.19
GATTGGGA	-0.114
CTCATACC	0.0801
GATGTCGC	-0.0575
ATTATGAA	0.261

Sequence	PBM E-score
AGTCGCAT	-0.104
GCTCAAAC	0.0246
GCGAGCAC	-0.153
ACTTCTTG	-0.044
AATCTCAG	-0.0162
GCTTCACA	-0.0453
GAACGGTA	0.083
GTTCCGCA	0.081
AGGTGGAC	-0.187
GGTCCAGA	-0.0784
CGTGAATC	0.113
CCAGTACA	0.0428
AGGGGTTC	-0.222
AATTGGCA	0.0303
ATCTTGAC	-0.13
CGCTCACG	0.00332
ACGATGCG	-0.041
AAGTAGAT	0.093
CGTCTACC	-0.0135
GCGGCTAC	-0.104
AACGTACG	0.0991
ACGTGAAT	0.163
ACTGCCTG	-0.0152
CCAGTGAA	-0.198
GACGCCTA	-0.0664

Sequence	PBM E-score
CCGCGGCG	-0.0133
GAAGGTAC	0.0436
AGGTCGTG	-0.106
ACTTCATC	0.0677
TCCCCAAA	0.0308
CTGATCGA	-0.239
AATACAGC	0.073
CGATTGTC	-0.0792
CAAAAGCC	-0.112
CAGCGCAG	-0.115
CACGCTGA	0.0338
AAGACTCG	-0.08
CAAGACCC	-0.155
AAAGCCTT	-0.129
CTGCATAA	0.157
ATTCTTCG	-0.0286
GTTTGGTA	0.214
CCTCACAG	-0.0363
GAGGCCAC	-0.223
CGTGATAA	0.0442
AGTTCACC	0.0278
CAATGATA	0.137
AGGCCACA	-0.191
ATCCCTCG	-0.0303
GTGGCCCA	-0.152

Sequence	PBM E-score
AGGTAATA	0.294
ACGTTGAT	0.155
CTGGCGGC	-0.142
CAAGACGA	-0.00312
AGTGTGCA	0.0195
GTAGCGTA	0.0978
ATCGCTCA	0.0478
ATTCGATG	0.0289
CGATGCAA	-0.116
CCGACCGG	-0.178
ATGACATA	0.243
CATAGGTA	0.00106
ACAGCCCA	-0.0781
ATTTGAGC	0.108
AAGAACAC	0.147
AAGGCTGA	0.00347
AAATTGTG	0.131
AGCACAAC	0.155
CTGGTTTC	0.0379
ACCGAACT	0.00037
CTCTTATA	0.21
AATTATCT	0.237
